Experimental data published in doi:10.1101/2020.08.22.262386.
Results are given in words; binding and its absence hold for the method and conditions named. Some results given as binding are weak or reduced against the parent protein; the word gives no strength.

Chains of the proteins cited; added tags and fusions are not shown.
UniProt Q14145: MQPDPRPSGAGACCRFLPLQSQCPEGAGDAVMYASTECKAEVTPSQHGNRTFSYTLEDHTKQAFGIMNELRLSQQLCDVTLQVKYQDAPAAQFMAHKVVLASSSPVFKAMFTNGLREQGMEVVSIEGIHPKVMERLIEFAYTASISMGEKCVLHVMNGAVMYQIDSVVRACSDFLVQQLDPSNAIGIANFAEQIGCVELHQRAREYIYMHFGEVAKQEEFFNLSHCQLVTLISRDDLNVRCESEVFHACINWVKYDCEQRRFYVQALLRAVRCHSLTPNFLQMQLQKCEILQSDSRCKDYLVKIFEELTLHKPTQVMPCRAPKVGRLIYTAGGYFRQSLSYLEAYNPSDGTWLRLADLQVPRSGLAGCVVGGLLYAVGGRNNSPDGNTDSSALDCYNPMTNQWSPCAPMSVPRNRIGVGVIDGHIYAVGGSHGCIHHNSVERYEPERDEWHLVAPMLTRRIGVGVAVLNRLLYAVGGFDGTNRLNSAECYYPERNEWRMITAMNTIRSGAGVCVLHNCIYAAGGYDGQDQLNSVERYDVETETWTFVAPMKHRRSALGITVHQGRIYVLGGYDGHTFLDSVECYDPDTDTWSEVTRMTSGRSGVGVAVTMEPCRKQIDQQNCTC

Target: T1, DPP3 (human) (UniProt Q9NY33)
T1 sequence: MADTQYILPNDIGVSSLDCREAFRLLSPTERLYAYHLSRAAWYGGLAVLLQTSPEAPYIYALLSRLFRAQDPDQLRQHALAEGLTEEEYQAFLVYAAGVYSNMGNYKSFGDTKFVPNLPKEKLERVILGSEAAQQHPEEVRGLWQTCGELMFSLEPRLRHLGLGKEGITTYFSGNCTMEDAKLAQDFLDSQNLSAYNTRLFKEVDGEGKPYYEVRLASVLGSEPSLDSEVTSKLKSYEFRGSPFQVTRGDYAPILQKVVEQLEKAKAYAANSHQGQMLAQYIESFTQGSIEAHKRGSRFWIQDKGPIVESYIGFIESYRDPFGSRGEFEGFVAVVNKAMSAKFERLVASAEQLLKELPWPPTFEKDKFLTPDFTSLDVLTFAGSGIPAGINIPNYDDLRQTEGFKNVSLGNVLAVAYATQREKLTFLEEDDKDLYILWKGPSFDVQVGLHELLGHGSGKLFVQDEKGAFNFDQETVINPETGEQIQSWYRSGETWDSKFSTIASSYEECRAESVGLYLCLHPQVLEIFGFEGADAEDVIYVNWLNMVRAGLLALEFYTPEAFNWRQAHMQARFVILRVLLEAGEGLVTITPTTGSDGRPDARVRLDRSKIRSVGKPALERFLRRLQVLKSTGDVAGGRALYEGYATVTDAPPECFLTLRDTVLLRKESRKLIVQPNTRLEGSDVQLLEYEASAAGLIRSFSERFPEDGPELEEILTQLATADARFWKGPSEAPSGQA
Assay: two-hybrid

In the case of KEAP1 (from UniProt Q14145 1-624), the binding is reported as “binds”.
